# Publication doi:10.1101/587212
# Protein sequences, listed by entry. Tags and fused reporters are not part of them.
# UniProt P29466: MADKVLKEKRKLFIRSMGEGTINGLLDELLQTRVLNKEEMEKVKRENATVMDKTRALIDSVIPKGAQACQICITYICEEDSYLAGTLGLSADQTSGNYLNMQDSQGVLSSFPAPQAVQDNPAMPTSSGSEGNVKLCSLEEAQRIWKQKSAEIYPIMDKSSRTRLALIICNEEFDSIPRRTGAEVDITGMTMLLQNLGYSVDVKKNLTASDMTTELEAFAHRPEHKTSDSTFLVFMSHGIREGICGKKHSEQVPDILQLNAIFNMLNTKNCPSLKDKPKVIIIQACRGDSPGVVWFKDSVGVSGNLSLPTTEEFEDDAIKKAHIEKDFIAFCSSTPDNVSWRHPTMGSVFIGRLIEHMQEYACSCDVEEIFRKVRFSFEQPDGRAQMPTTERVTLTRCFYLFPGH
# Results are given in words; binding and its absence hold for the method and conditions named. Binding seen in cells or lysates may run through a third protein. Some entries that bind do so weakly or less than the wild type. For some assays here: Tags and fused reporters may be left off the sequences shown.
# Tests used:
# mOrange-NOD1 = biological target: T1, mOrange-NOD1 (UniProt Q9Y239); assay: FRET or BRET
# T1 sequence: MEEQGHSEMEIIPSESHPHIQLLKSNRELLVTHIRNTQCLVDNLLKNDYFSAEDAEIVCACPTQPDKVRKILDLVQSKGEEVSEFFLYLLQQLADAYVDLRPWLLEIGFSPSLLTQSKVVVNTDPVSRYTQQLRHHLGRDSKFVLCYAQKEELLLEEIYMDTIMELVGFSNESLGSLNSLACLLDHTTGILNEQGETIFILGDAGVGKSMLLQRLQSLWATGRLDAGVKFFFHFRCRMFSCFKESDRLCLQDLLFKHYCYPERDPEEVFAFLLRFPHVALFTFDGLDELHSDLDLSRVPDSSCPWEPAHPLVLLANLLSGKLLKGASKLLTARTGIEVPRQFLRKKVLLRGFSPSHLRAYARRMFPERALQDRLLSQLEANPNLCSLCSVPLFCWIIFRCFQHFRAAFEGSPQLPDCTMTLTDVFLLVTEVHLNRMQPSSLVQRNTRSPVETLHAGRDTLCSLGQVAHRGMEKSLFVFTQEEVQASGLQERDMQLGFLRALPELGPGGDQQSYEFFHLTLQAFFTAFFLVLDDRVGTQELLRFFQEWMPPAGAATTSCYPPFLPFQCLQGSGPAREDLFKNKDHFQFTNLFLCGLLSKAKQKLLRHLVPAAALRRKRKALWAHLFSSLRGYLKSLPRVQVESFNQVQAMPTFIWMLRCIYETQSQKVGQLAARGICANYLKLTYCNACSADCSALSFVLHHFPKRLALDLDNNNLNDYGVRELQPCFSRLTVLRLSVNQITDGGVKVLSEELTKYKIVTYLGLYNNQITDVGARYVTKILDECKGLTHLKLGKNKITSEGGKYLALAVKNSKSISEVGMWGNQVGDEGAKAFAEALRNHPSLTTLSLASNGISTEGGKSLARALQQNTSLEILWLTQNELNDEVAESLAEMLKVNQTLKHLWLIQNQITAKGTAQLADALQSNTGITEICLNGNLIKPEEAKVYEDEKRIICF
# [1] = biological target: T2, FLAG-tagged full-length NOD1 (NOD1-FLAG) (UniProt Q9Y239); assay: co-IP
# T2 sequence: T1 sequence
binding (mOrange-NOD1),Substance,binding [1]
binds,EGFP-caspase-1 (from UniProt P29466 1-404) (enzyme),–
–,endogenous caspase-1 (from UniProt P29466 1-404) (enzyme),binds
